These are yes or no findings as the source states them, for the method shown.
How the values were obtained:
Test in all cases: negative-stain electron microscopy
[1] = biological target: MBP-TorsinA E171Q (residues 51-332) (human) (UniProt O14656)
[2] = biological target: TorsinA D188A (human, residues 51-332) (human) (UniProt O14656)
[3] = biological target: TorsinA D188Y (human, residues 51-332) (human) (UniProt O14656)
[4] = biological target: TorsinA D264A (human, residues 51-332) (human) (UniProt O14656)
[5] = biological target: TorsinA G251Y (human, residues 51-332) (human) (UniProt O14656)
[6] = biological target: TorsinA K148E (human, residues 51-332) (human) (UniProt O14656)
[7] = biological target: TorsinA K184E (human, residues 51-332) (human) (UniProt O14656)
[8] = biological target: TorsinAΔE (human TorsinA residues 51-332, deletion of glutamate 303) (human) (UniProt O14656)

Amino acid sequences for entries named in this document (tags omitted). A change or cut given only in a name is not applied to a line headed by its entry. Chains listed by the source or under a name are the forms on record and can include a tag or linker. Residues count along the entry.
MBP-TorsinA E171Q (residues 51-332) (O14656, form named): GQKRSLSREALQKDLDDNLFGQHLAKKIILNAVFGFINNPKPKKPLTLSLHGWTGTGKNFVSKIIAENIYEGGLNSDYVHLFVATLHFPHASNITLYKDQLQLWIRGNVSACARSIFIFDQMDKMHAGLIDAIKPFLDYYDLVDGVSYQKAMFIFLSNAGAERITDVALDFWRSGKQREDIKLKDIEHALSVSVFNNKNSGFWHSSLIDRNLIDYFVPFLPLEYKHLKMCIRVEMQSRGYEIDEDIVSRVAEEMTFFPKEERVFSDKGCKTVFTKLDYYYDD
TorsinA D188A (human, residues 51-332) (O14656, form named): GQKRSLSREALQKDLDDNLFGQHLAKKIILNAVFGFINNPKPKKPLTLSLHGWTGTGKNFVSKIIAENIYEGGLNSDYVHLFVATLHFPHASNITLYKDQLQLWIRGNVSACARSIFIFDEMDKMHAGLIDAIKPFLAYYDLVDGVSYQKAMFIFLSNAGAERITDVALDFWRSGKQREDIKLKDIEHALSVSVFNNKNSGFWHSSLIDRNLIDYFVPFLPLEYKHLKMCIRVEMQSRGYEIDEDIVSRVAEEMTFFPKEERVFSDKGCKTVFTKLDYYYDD
TorsinA D188Y (human, residues 51-332) (O14656, form named): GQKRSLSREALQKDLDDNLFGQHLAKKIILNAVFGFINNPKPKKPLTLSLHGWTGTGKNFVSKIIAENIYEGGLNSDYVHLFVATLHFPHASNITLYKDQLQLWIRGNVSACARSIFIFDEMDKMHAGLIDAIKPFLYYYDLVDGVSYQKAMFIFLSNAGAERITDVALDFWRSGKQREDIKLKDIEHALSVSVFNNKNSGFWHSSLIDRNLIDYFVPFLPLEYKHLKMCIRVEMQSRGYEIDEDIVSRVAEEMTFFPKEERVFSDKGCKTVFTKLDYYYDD
TorsinA D264A (human, residues 51-332) (O14656, form named): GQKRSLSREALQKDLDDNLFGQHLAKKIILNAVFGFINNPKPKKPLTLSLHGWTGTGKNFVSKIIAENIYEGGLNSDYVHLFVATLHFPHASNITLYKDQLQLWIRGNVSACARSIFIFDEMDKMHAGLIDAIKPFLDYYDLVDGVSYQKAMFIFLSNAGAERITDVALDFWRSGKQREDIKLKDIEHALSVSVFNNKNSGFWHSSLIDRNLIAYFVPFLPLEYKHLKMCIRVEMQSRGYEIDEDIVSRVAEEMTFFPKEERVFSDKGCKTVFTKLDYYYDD
TorsinA G251Y (human, residues 51-332) (O14656, form named): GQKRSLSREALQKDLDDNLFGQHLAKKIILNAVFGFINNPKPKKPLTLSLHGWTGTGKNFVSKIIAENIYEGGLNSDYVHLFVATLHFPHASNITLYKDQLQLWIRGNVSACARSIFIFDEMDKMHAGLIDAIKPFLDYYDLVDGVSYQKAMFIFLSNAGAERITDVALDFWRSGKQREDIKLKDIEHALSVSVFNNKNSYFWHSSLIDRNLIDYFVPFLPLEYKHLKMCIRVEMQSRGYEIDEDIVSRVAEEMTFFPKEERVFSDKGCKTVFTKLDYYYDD
TorsinA K148E (human, residues 51-332) (O14656, form named): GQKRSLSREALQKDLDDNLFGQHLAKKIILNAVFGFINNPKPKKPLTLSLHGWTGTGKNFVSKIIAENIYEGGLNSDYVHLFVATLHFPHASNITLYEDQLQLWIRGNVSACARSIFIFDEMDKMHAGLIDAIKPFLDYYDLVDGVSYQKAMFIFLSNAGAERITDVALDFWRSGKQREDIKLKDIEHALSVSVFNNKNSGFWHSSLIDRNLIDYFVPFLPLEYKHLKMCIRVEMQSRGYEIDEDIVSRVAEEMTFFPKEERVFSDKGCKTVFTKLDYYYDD
TorsinA K184E (human, residues 51-332) (O14656, form named): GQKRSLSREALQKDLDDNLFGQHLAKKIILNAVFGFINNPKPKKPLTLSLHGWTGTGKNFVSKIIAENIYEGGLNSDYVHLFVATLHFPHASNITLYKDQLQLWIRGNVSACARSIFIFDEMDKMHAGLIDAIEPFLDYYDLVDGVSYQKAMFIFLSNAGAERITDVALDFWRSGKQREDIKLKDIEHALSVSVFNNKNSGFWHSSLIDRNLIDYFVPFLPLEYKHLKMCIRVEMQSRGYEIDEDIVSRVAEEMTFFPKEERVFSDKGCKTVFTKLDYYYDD
TorsinAΔE (human TorsinA residues 51-332, deletion of glutamate 303) (O14656, form named): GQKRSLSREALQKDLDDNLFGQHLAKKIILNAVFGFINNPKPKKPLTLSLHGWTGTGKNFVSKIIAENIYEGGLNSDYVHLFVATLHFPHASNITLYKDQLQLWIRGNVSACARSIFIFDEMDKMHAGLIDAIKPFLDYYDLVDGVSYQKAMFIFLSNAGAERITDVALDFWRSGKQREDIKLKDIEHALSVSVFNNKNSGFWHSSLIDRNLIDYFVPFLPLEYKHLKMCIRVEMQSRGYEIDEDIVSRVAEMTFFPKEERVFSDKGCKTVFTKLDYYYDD

## MBP-TorsinA E171Q (residues 51-332) (from UniProt O14656 51-332) (domain or fragment)
[1]
  binding: no binding

## TorsinA D188A (human, residues 51-332) (from UniProt O14656 51-332) (domain or fragment)
[2]
  binding: no binding

## TorsinA D188Y (human, residues 51-332) (from UniProt O14656 51-332) (domain or fragment)
[3]
  binding: no binding

## TorsinA D264A (human, residues 51-332) (from UniProt O14656 51-332) (domain or fragment)
[4]
  binding: no binding

## TorsinA G251Y (human, residues 51-332) (from UniProt O14656 51-332) (domain or fragment)
[5]
  binding: no binding

## TorsinA K148E (human, residues 51-332) (from UniProt O14656 51-332) (domain or fragment)
[6]
  binding: no binding

## TorsinA K184E (human, residues 51-332) (from UniProt O14656 51-332) (domain or fragment)
[7]
  binding: no binding

## TorsinAΔE (human TorsinA residues 51-332, deletion of glutamate 303) (from UniProt O14656 51-332) (domain or fragment)
[8]
  binding: no binding
